Assay results taken from paper PMC9531157.
These are yes or no findings as the source states them, for the method shown. In cells and extracts the contact can be indirect. Some binding calls cover weakened binding; strength is not graded here.

By UniProt entry, the sequences of proteins in these tests, tags left out. Residues count along the entry.
UniProt O95831, residues 102-613: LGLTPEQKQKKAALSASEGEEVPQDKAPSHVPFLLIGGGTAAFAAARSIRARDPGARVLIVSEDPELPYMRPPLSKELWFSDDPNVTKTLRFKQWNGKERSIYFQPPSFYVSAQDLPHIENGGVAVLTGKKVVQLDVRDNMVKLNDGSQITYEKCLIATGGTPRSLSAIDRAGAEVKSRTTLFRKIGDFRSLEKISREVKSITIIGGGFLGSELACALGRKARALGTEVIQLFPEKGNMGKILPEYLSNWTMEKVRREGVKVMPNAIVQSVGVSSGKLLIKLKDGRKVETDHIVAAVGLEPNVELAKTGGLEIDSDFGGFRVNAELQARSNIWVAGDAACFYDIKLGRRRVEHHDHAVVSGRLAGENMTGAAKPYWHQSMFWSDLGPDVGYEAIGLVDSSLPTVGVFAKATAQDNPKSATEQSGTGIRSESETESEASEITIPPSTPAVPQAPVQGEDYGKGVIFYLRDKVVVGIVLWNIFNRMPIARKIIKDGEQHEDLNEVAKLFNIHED
UniProt P11142: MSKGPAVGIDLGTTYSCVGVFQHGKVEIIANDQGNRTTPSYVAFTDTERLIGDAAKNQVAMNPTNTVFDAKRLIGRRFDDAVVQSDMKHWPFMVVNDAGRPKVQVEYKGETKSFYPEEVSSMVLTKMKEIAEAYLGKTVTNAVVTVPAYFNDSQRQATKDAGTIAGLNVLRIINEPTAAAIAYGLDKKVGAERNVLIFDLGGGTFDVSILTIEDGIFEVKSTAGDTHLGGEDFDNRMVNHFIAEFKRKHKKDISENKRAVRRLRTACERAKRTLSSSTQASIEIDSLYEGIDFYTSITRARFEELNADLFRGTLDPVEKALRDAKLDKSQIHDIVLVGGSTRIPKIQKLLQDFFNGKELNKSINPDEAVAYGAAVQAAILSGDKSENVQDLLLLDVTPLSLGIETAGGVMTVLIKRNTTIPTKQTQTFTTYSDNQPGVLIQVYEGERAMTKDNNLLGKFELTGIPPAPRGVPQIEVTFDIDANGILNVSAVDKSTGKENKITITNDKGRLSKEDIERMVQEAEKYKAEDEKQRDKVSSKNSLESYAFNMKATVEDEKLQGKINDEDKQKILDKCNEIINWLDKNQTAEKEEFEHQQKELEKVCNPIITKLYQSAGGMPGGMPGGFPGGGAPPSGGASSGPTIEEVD

Legend:
[1] = molecular target: apoptosis-inducing factor (human (endogenous in Ca Ski and SiHa)) (UniProt O95831); assay: condition: only cells treated with 10 µM SHetA2 for 24 hours; co-IP; as a1, but cells treated with 10 µM SHetA2 for 24 hours before lysis
[2] = molecular target: apoptosis-inducing factor (human (endogenous in Ca Ski and SiHa)) (UniProt O95831); assay: co-IP; lysates (about 500 ug protein, M-PER) of vehicle-treated Ca Ski and SiHa cells incubated overnight at 4°C with agarose beads cross-linked to 10 ug hsc70 or AIF antibody (Pierce Crosslink IP kit); Western blot of the precipitates
[3] = molecular target: heat shock cognate 70 (human (endogenous in Ca Ski and SiHa)) (UniProt P11142); assay: condition: only cells treated with 10 µM SHetA2 for 24 hours; co-IP; as a1, but cells treated with 10 µM SHetA2 for 24 hours before lysis
[4] = molecular target: heat shock cognate 70 (human (endogenous in Ca Ski and SiHa)) (UniProt P11142); assay: co-IP; lysates (about 500 ug protein, M-PER) of vehicle-treated Ca Ski and SiHa cells incubated overnight at 4°C with agarose beads cross-linked to 10 ug hsc70 or AIF antibody (Pierce Crosslink IP kit); Western blot of the precipitates

Row | binding [1] | binding [2] | binding [3] | binding [4] | Substance
1 | no binding | binds |  |  | heat shock cognate 70 (from UniProt P11142 1-646)
2 |  |  | no binding | binds | apoptosis-inducing factor (from UniProt O95831 102-613)
